These are yes or no findings as the source states them, for the method shown. In cells and extracts the contact can be indirect. A result given as binding can be weak or reduced; the word gives no strength. For some of these results: Tags and fused reporters may be left off the sequences shown.
Experiments:
[1] = biological target: T1, GFP-DSK2B (Arabidopsis thaliana) (UniProt Q9SII8); assay: co-IP; seven-day-old Arabidopsis seedlings; IP buffer (50 mM Tris-HCl pH 7.5, 150 mM NaCl, 1 mM MgCl2, 0.1% NP40); anti-GFP affinity beads, 4 C, 2 h; blots anti-GFP and anti-HA or anti-DSK2
T1 sequence: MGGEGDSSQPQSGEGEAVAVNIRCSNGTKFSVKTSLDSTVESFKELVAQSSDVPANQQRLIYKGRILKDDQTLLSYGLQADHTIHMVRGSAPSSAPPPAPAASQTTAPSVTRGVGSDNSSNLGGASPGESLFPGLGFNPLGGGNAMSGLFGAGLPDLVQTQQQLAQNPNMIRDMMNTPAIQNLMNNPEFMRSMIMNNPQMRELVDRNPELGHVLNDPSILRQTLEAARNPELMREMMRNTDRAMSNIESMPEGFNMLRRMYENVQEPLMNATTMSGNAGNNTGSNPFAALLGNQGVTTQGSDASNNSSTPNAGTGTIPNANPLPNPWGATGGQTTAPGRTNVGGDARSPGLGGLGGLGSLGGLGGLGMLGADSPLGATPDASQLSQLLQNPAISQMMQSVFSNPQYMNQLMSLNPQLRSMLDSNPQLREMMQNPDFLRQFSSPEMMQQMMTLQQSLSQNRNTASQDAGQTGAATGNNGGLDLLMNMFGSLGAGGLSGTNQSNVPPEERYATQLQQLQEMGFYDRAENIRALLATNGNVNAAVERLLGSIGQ

Chains of the proteins cited; added tags and fusions are not shown. Lines headed by an entry give the natural chain unless they say otherwise; changes in a name come on top.
UniProt Q9CAG8: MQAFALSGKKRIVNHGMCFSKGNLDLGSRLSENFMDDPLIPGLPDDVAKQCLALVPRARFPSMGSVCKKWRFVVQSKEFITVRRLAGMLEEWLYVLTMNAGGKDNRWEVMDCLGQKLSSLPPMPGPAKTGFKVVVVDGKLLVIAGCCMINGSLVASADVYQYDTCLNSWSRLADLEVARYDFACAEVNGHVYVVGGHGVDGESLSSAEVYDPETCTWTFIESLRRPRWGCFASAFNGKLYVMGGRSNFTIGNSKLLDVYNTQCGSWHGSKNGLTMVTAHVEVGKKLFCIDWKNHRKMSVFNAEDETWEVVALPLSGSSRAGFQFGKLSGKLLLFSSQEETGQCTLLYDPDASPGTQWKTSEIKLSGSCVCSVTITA
UniProt Q93Z00: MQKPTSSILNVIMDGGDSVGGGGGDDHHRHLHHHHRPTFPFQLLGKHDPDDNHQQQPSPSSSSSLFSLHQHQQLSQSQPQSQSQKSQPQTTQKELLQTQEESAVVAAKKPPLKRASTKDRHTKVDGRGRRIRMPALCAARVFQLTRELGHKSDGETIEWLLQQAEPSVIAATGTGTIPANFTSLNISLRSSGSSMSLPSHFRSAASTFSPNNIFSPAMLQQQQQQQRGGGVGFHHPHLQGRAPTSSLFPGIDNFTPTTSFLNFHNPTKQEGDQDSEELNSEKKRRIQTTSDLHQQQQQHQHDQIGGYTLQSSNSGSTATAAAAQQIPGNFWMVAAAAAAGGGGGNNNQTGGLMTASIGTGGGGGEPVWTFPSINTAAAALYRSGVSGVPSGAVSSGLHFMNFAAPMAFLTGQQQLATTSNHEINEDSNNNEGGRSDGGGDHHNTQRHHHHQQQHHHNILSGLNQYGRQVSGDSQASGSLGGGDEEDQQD
UniProt Q9FTA2: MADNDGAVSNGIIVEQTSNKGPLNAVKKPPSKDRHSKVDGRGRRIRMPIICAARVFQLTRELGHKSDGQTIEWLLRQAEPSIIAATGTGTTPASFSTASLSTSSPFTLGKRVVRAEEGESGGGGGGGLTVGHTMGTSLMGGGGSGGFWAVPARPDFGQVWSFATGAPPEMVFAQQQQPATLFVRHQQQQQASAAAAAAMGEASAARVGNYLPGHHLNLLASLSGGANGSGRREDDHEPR

[2] = biological target: HA-LAO1 (Arabidopsis thaliana) (UniProt Q9CAG8); assay: pull-down; semi-in vivo pull-down: HA-LAO1 enriched from 35S: HA-LAO1 seedling extract on anti-HA affinity beads, washed, mixed with 1 ug purified His-tagged protein for 3 h at 4 C in IP buffer (50 mM Tris-HCl pH 7.5, 150 mM NaCl, 1 mM MgCl2, 0.1% NP40); blots anti-His and anti-HA; only the binder purified
[3] = biological target: LAO1-YN (Arabidopsis thaliana) (UniProt Q9CAG8); assay: split reporter; BiFC: LAO1-YN co-infiltrated with TCP14-YC or TCP21-YC into leaves of 1-month-old N. benthamiana; YFP signal after 48 h by confocal microscopy

Substance	binding [3]	also measured
HA-LAO1 (from UniProt Q9CAG8)		binding [1]: binds
His-TCP14 (from UniProt Q93Z00 1-489)		binding [2]: binds
TCP14-YC (from UniProt Q93Z00 1-489)	binds	
TCP21-YC (from UniProt Q9FTA2 1-239)	binds	

— publication PMC12287301
